The supplement of paper PMC10338343
± gives the standard deviation. This is a selection; strong and weak results do not stand in their true shares. The uncertainty is large for many entries.

Test system: EfPiwi piRISC loaded with piRNA #1 (26 nt)
Assay: pre-steady-state target cleavage rate (min^-1); guide: piRNA #1 5'p-UGAGGUAGUAGGUUGUAUAGUAUCCA; MIWI and MILI are mouse PIWI proteins and EfPiwi is from a freshwater sponge; tags in brackets are library labels; higher = faster piRNA-guided slicing of the target
Conditions: auxiliary factor: 500 nM Ephydatia muelleri Gtsf1
Procedure, shortened: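 Sequencing of uncleaved targets, normalised to depth and to weakly complementary targets, was the readout of this Cleave-'n-Seq assay. A transcribed, DNA-blocked target RNA library (0.1 nM) was mixed with 1 nM active affinity-purified piRISC carrying one synthetic guide, with or without 500 nM GTSF1 partner protein, in HEPES–potassium acetate buffer at 33 °C for 0–8 or 0–960 min. Three trials were pooled, k3 was capped at 0.0001 min^-1, and a burst-and-steady-state fit gave the pre-steady-state cleavage rate.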

Row | Sequence | pre-steady-state target cleavage rate
1 | GGAGAGGAUAGUAAACAACCUACUACCUCA | 0.00286 ± 0.0037
2 | GGAGAGGUUACUAUACAACCUACUACCUCA | 0.0625 ± 0.025
3 | GGAGUGGAUACUAUACAAGCUACUACCACA | 0.0039 ± 0.0017
4 | GGAGACGAUACUAAACAACCUACAACCUCA | 0.0012 ± 0.0025
5 | GGAGACCUUACUAUUCAACCUACAACCUCA | 0.000823 ± 0.011
6 | GGAGACCUAUGUAUACAACCUACAUCCUCA | 0.000246 ± 0.0098
7 | GGAGACCUUACUAUACAACCUACUUACCUCA | 0.00224 ± 0.0023
8 | GGAGACCUUACAAUACAACCUACUACCACA | 0.00133 ± 0.0099
9 | GGAGUGGAUACUAUACAACGUACUACGUCA | 0.0036 ± 0.0015
10 | GGAGACCAUAGUAAACAACCUACUACCUCA | 0.00482 ± 0.0034
11 | GGAGACCUAACUAUACUACCUACUAGCUCA | 0.0011 ± 0.007
12 | GGAGACCUUACUUUACAACCUACUAGCUCA | 0.00253 ± 0.0039
13 | GGAGUGGAUACUAUACAACCUAUCUACCUCA | 0.00584 ± 0.0027
14 | GGAGAGGAUACUAUACAACCUACUACCUGCA | 0.00613 ± 0.0026
15 | GGAGACCUUACUAUACAACCUAGUACCUCA | 0.00384 ± 0.0019
16 | GGAGACCUAAGUAUACAACCUACUACGUCA | 0.00262 ± 0.0028
17 | GGAGACCUAUCAAUACAAGCUACUACCUCA | 0.00234 ± 0.0049
18 | GGAGACCUAACUAUACUACGUACUACCUCA | 0.00178 ± 0.0047
19 | GGAGACCUAUGUAUACAACCUACUAGCUCA | 0.00193 ± 0.0043
20 | GGAGACCUAUGAUAACAACGUAGUACCUCA | 0.000164 ± 0.018

Individual results from above.
pre-steady-state target cleavage rate with GGAGACCUAUGUAUACAACCUACAUCCUCA is entered as 0.000246 ± 0.0098
pre-steady-state target cleavage rate with GGAGUGGAUACUAUACAAGCUACUACCACA is entered as 0.0039 ± 0.0017

(listing goes on)

Row | Sequence | pre-steady-state target cleavage rate
21 | GGAGACCUUACAAUACAACCUACUACCUCA | 0.0117 ± 0.0048
22 | GGAGACCUUACUAUACAACCUACAACGUCA | 0.00253 ± 0.0057
23 | GGAGUGGAUACUAUACAUCCUACUACCUGA | 0.00497 ± 0.0018
24 | GGAGACCUUACUAUAGAACCUACUACCUGA | 0.000888 ± 0.0038
25 | GGAGACCUUACUAUAGAACCUACUACGUCA | 0.000695 ± 0.0037
26 | GGAGAGGCAUACUAUACAACCUACUACCUCA | 0.0477 ± 0.017
27 | GGAGAGGAUACUAUAGUUCCUACUACCUCA | 0.00146 ± 0.0063
28 | GGAGACCUAUGAAAUACAACCUACUACCUCA | 0.00445 ± 0.0038
29 | GGAGACCUAUCUAGACAACCUACUACCUCA | 0.00289 ± 0.0042
30 | GGAGAGGAUACUAUAGAACCUACUACCACA | 0.00261 ± 0.0014
31 | GGAGAGGAAACUAUAGAACCUACUACCUCA | 0.00143 ± 0.0034
32 | GGAGUGGAUACUAUAGAACCUACAACCUCA | 0.00234 ± 0.0015
33 | GGAGAGGAUACUAUACAACCUACAUACCUCA | 0.00353 ± 0.0021
34 | GGAGACCUAACUAUACAACCUAGCUACCUCA | 0.00041 ± 0.015
35 | GGAGACCAAACUAAACAACCUACUACCUCA | 0.00793 ± 0.0036
36 | GGAGACCUAUCUAUACAACCUUCUACCUCA | 0.00257 ± 0.0038
37 | GGAGUGGAUACUAUACAACCUACUACCUCU [g2:g26:cont:t1U] | 1.05 ± 0.27
38 | GGAGACCUAUGAUAUGUUGCUACACCUCA | 0.000331 ± 0.005
39 | GGAGUGGAUAGUAUAGAACCUACUACCUCA | 0.00129 ± 0.0032
40 | GGAGACCAUACUUUACAACCUUCUACCUCA | 0.00292 ± 0.0039
